# Source: patent publication US10011631B2 (The University of Hong Kong, priority 2015, dated 2018)
# Assay: general procedure: Fmoc solid-phase peptide synthesis; Rink amide resin; HATU/DIEA
# Conditions: whole synthesis, based on the resin loading, side-chain lactam ring, sequence written open
row,Substance,isolated yield [%]
1,Ala-Arg-Arg-Asp(salicylaldehyde ester)-Glu-Tyr-Leu-Lys(5-OH)-Ala-Ile-Gln,35
2,Asp(salicylaldehyde ester)Ala-Ala-Ala-Lys(5-OR),30
3,Asp(salicylaldehyde ester)Ala-Ala-Ala-Lys(Ser),42
4,Gln-Ser-Gln-Gln-Thr-Phe-Asp(salicylaldehyde ester)-Asn-Leu-His-Arg-Leu-Leu-Lys(Ser)-Ala-Ala-Ala-Lys(Ser)-Gln-Asn,40
5,Glu-Asn-Pro-Glu-Asp(salicylaldehyde ester)-Ile-Leu-Asp-Lys(Ser)-His-Val-Gln-Arg-Val-Leu,45
